The AC50 is the midpoint of the concentration-response curve, whichever way the signal moves.

Experimental findings from PubChem BioAssay (NCATS) are described below.

The nature of assay [1]: NCATS anti-infectives library activity on the primary C. elegans qHTS viability assay (AID 1745855). The note with it: C. elegans worm area imaging. In short, it runs like this:
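Titration-based screen in worms: eggs hatched overnight in M9, L1 larvae fed TOP10 capsules in S medium with compound, incubated 21 °C for 7 days; fluorescent objects gated by size and intensity at days 0, 3 and 7.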
A general note: In qHTS, concentration-response curves come from the screen itself.

The nature of assay [2]: qHTS drug screen for cell cycle checkpoint inhibitors in PARPi-resistant BRCA-mutant ovarian cancer cell lines. (AID 1963452). The note with it: PEO1/OlaR viability, CellTiter-Glo luminescence, 96 h. In short, it runs like this:
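PEO1, PEO4 and PEO1/OlaR ovarian cancer cells, 600 per well, exposed 96 h at 37C to a dilution series. Viability read by CellTiter-Glo luminescence, normalized to DMSO and empty wells; activity summarized as Z-AUC.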

A short description of assay [3]: qHTS for identification of novel therapeutic agents for treatment of microphthalmiaassociated transcription factor (MiT) renal cell carcinoma (RCC) (AID 1963991). The note with it: CellTiter-Glo, 48 h; for z-score: stronger effect = lower value. In short, it runs like this:
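Three TFE3-fusion RCC lines (UOK109, UOK124, UOK145), 500 cells/well in complete medium, were treated with MIPE 4.0 compounds for 48 hours at 37 C. Viability was by CellTiter-Glo luminescence, normalized to DMSO (100%) and empty wells (0%); curves fitted over 11 concentrations.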

A short description of assay [4]: Nrf2 qHTS screen for inhibitors: Validation (AID 493153). The note with it: A549 ARE-Fluc reporter, 18-24 h; AC50: CellTiter-Fluor fluorescence read, measured here: cytotoxicity CellTiter-Fluor AC50; viability change: measured here: cytotoxicity max response. The method, boiled down: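 Concentration-response test in A549 ARE_Fluc reporter cells (5% FBS OPTI-MEM), compound exposure 18-24 h at 37°C, 5% CO2. Cell viability measured first by CellTiter-Fluor fluorescence; ARE-driven luciferase luminescence then measured as Nrf2 activity.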

The nature of assay [5]: S16 Schwann cell PMP22 intronic element beta-lactamase assay (AID 624044). The note with it: S16 rat Schwann cells, PMP22 element beta-lactamase FRET, 24 h. The method, boiled down: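 Beta-lactamase reporter under a PMP22 intronic regulatory element in stable S16 rat Schwann cells; 24 h compound exposure. 460 nm blue signal normalized between DMSO (0%) and potassium clavulanate, with 535 nm FRET tracking viability; curves classed by r2 and response.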

Where [6] appears, read: day 7, measured here: worm number, day 3.
Setting [7] is: day 7, measured here: worm number.
Where [8] appears, read: day 7, measured here: worm area, day 3.
Where [9] appears, read: measured here: PEO1 parental viability.
Setting [10] is: TFE3-RCC UOK109 viability, measured here: UOK109 Z-AUC.
Where [11] appears, read: TFE3-RCC viability, measured here: UOK124 Z-AUC.
Setting [12] is: TFE3-RCC viability, measured here: UOK124 cell viability.
Where [13] appears, read: TFE3-RCC viability, measured here: UOK145 Z-AUC.
[14] abbreviates: TFE3-RCC viability, measured here: UOK145 cell viability.

The other results are listed elsewhere or left out. These are further read-outs of the screen, such as a control signal, another cell line or another target. No call is given for them. For part of these data: The list favours compounds with an active or inconclusive main result. For part of these data: Potencies come from curve fits of mixed quality, noted in brackets.

Turning to `COc1cc2c(c(OC)c1OC)-c1c(cc(OC)c(OC)c1OC)CC(C)C(C)C2` (configuration not stated), the AC50 in assay [1] (setting [6]) was 1.63 µM [falling, partial curve, poor fit].
Regarding `O=C(O)/C(S)=C/c1c[nH]c2ccc(F)cc12`, in assay [1] (setting [7]), the AC50 is 23 µM [falling, single point].
Consider `Cc1ccc(N)cc1C(=O)N[C@H](C)c1cccc2ccccc12`, for which the AC50 in assay [1] (setting [8]) was 11.2 µM [falling, partial curve, poor fit].
For the compound `C[C@H](Cn1cnc2c(N)ncnc21)OCP(=O)(O)O`, the AC50 in assay [1] (setting [7]) is 1.45 µM [falling, partial curve, poor fit].
For `C[C@@]1(O)[C@H](O)[C@@H](CO)O[C@H]1n1ccc(N)nc1=O`, the AC50 in assay [1] (setting [6]) is 31.6 µM [falling, single point].
As to `C=CC(=O)N1C/C(=C\c2ccc([N+](=O)[O-])cc2)C(=O)/C(=C/c2ccc([N+](=O)[O-])cc2)C1`, in assay [1] (setting [7]), the AC50 was 8.16 µM [falling, partial curve, poor fit].
Turning to `N[C@@H](CC(=O)N1CCn2c(nnc2C(F)(F)F)C1)Cc1cc(F)c(F)cc1F`, the AC50 in assay [1] (setting [6]) is 29 µM [rising, single point].
Take `C[C@H]1CC[C@@]2(O)C(C)(C)[C@@H]3CC[C@@]2(C)[C@H]1C3`: in assay [1] (setting [6]), the concentration at half-maximal activity (AC50) was 0.409 µM [falling, full curve, poor fit].
For the compound `c1ccc([C@H]2CN3CCSC3=N2)cc1`, the concentration at half-maximal activity (AC50) in assay [1] (setting [7]) is 1.83 µM [falling, partial curve, poor fit].
Turning to `Cc1cccc(/C=N/Nc2cc(N3CCOCC3)nc(OCCc3ccccn3)n2)c1`, the half-maximal activity concentration (AC50) in assay [2] (setting [9]) is 7.76 µM [falling, partial curve]; in assay [2] (measured here: PEO4 viability), 11 µM [falling, partial curve].
For the compound `C=CC[C@@H]1/C=C(\C)C[C@H](C)C[C@H](OC)[C@H]2O[C@@](O)(C(=O)C(=O)N3CCCC[C@H]3C(=O)O[C@H](/C(C)=C/[C@@H]3CC[C@@H](O)[C@H](OC)C3)[C@H](C)[C@@H](O)CC1=O)[C@H](C)C[C@@H]2OC`, the AC50 in assay [2] (setting [9]) is 13.8 µM [falling, single point]; in assay [2] (measured here: PEO4 viability), 24.5 µM [falling, single point].
`CCS(=O)(=O)Nc1ccc2[nH]c(O)c(C(=Nc3ccc(CN4CCCCC4)cc3)c3ccccc3)c2c1`: the AC50 in assay [1] (setting [7]) is 14.5 µM [falling, partial curve, poor fit]; in assay [2] (setting [9]), 2.19 µM [falling, partial curve]; in assay [2] (measured here: PEO4 viability) it was 1.95 µM [falling, partial curve, poor fit]; in assay [3] (setting [12]), 13.2 µM [falling, partial curve]; in assay [3] (setting [14]), 11.8 µM [falling, partial curve]. The z-score in assay [3] (setting [10]) was -0.705; in assay [3] (setting [11]), -1.17; in assay [3] (setting [13]) it was 0.299.
For the compound `O=c1oc2cc(O)ccc2s1`, the AC50 in assay [1] (setting [6]) was 5.15 µM [falling, full curve, poor fit]; in assay [2] (setting [9]), 0.616 µM [rising, partial curve, poor fit].
With `COc1cc2c(cc1Cc1cccc(Cl)c1F)c(=O)c(C(=O)O)cn2[C@H](CO)C(C)C`, the AC50 was 7.27 µM [rising, partial curve] in assay [1] (setting [6]); 13.8 µM [falling, partial curve] in assay [2] (setting [9]); 19.5 µM [falling, single point] in assay [2] (measured here: PEO4 viability); 10.5 µM [falling, partial curve] in assay [3] (setting [12]). In addition, the z-score in assay [3] (setting [10]) was 0.426; in assay [3] (setting [11]) it was 0.239; in assay [3] (setting [13]) it was 0.475.
For the compound `C[C@H]1c2cccc(O)c2C(O)=C2C(=O)[C@]3(O)C(O)=C(C(N)=O)C(=O)[C@@H](N(C)C)[C@@H]3[C@@H](O)[C@@H]21`, in assay [4], the viability change was 6.39%. In addition, the AC50 in assay [1] (setting [7]) is 1.63 µM [falling, full curve, poor fit]; in assay [1] (setting [6]) it was 2.58 µM [falling, partial curve, poor fit]. For the same compound, the z-score in assay [3] (setting [10]) was -0.115; in assay [3] (setting [11]) it was 0.197; in assay [3] (setting [13]) it was -0.331.
With `Cc1cc(/C=C\c2ccc3cc(N(C)C)ccc3[n+]2C)c(C)n1-c1ccccc1`, the AC50 is 2.13 µM [falling, partial curve, poor fit] in assay [5] (measured here: 460 nm blue channel); 0.0891 µM [falling, full curve, poor fit] in assay [5] (measured here: 530 nm viability channel); 9.16 µM [falling, partial curve, poor fit] in assay [1] (setting [7]); 2.05 µM [falling, partial curve, poor fit] in assay [1] (setting [8]); 25.8 µM [falling, single point] in assay [1] (setting [6]).
Consider `CC(=O)N1c2ccc(-c3ccc(C(=O)O)cc3)cc2[C@H](Nc2ccc(Cl)cc2)C[C@@H]1C`, for which the AC50 in assay [1] (setting [7]) is 25.8 µM [falling, single point]; in assay [1] (setting [8]), 6.48 µM [falling, partial curve, poor fit]; in assay [2] (setting [9]) it was 0.776 µM [falling, full curve]; in assay [2] (measured here: PEO4 viability) it was 0.174 µM [falling, full curve].
Take `OC[C@H]1O[C@@H](Oc2cc(O)cc(/C=C/c3ccc(O)cc3)c2)[C@H](O)[C@@H](O)[C@@H]1O`: the AC50 was 0.145 µM [falling, partial curve, poor fit] in assay [1] (setting [6]) and 0.0078 µM [rising, full curve, poor fit] in assay [2] (measured here: PEO4 viability).
On to `CC(=O)Nc1cccc(-n2c(=O)n(C3CC3)c(=O)c3c(Nc4ccc(I)cc4F)n(C)c(=O)c(C)c32)c1`, for which the concentration at half-maximal activity (AC50) in assay [1] (setting [7]) is 0.459 µM [falling, full curve, poor fit]; in assay [1] (setting [8]), 3.25 µM [falling, partial curve, poor fit]; in assay [1] (setting [6]), 0.0816 µM [falling, full curve, poor fit]; in assay [2] (setting [9]) it was 0.0549 µM [falling, full curve]; in assay [2] (measured here: PEO4 viability), 0.0138 µM [falling, full curve]; in assay [3] (setting [12]), 0.935 µM [falling, partial curve]. Also, in assay [3] (setting [14]), the AC50 is 0.526 µM [falling, partial curve, poor fit]. The values for the z-score in assay [3] (setting [10]), in assay [3] (setting [11]) and in assay [3] (setting [13]) were -1.27, -0.397 and -0.0729, respectively.
